Data as given in PubChem BioAssay AID1259354 (Paczesny and Yang Labs, IUPUI and University of Michigan, 2018).
Where “and” joins values, the source holds several entries; their conditions need not be identical. Equal values may be shown once. About 1,800 (2.3%) of roughly 78,000 compounds were called active. Inconclusive means that the source gave no clear call. Such entries were picked first, then a sample of the others. No stated cut-off is given here; in the data, active means inhibition above about 30%; inconclusive means mostly about 10% to 28%; inactive means weaker than that.

By UniProt entry, the sequences of proteins in these tests, tags left out. Where a name states a change or a piece, a line headed by the entry shows the natural chain unless it says otherwise.
UniProt Q01638: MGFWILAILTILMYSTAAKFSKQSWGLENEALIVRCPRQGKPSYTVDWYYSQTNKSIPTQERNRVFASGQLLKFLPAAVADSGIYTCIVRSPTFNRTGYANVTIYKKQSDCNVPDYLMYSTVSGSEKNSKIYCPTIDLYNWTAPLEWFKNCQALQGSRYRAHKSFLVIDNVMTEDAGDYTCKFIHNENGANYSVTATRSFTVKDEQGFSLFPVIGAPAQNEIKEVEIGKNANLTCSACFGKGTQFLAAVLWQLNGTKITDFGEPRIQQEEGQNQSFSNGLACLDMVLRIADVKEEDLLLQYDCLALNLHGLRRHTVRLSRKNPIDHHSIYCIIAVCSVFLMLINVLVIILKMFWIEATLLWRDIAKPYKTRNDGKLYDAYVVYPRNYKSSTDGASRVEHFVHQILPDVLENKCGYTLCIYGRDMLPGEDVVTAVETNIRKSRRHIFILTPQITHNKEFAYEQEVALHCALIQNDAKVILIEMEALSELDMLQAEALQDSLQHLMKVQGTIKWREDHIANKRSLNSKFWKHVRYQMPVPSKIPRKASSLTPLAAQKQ

These molecules were tested against Interleukin-1 receptor-like 1 (Homo sapiens) (UniProt Q01638) (assay: blocks human ST2 binding to IL-33, primary screen, biochemical, AlphaLISA (AID 1259354)). Details: AlphaLISA ST2-Fc/biotin-IL-33 interaction, 1 h; at 17 µM, active compounds read high.

Compound	inhibition
Cn1ccc2cc3c(cc21)CCN3C(=O)Nc1cccnc1	inconclusive: 15%
Cc1ccc(Nc2nc(C)cs2)cc1	inconclusive: 13%
COC(=O)c1cnn2c(C)c(Cc3cccc(C)c3)c(C)nc12	inactive
COc1cc(NC(=O)c2cc([N+](=O)[O-])ccc2Cl)c(OC)cc1Cl	inconclusive: 27%
CCn1cnc2cc(NCc3ccc(Br)cc3)ccc21	inconclusive: 20% and inconclusive: 12%
COc1ccc(NC(=O)N[C@H]2[C@H](O)[C@@H](N3CCOCC3)[C@@H]3OC[C@H]2O3)cc1	inconclusive: 11%
CCc1nc(Cn2cnc(-c3ccccc3)c2-c2ccc(C)cc2OC)no1	inconclusive: 18%
O=C(OCc1ccc(O[C@@H]2O[C@H](CO)[C@@H](O)[C@H](O)[C@H]2O)c(O)c1)c1ccc(O)c(O)c1	inactive
COc1ccc(CNC(=O)C[C@@H]2CCNC[C@@H]2Cc2cc(CSc3ccccc3)on2)cc1	inactive
CN(C)CC(=O)Nc1ccc2n(c1=O)C[C@H]1C[C@@H]2CN(C(=O)c2ccc(-c3ccccc3)cc2)C1	inconclusive: 11%
Cn1cnc2cc(-c3nc(C4(c5ccc(F)cc5)CCOC4)no3)cnc21 (centres undefined)	inconclusive: 24%
CCc1ccc(CN2CCC(O)CC2)cc1	inactive
CN1CC2(CCN(C(=O)CCc3nc4ccccc4[nH]3)C2)OC1=O (centres undefined)	inactive
COc1ccc(/C=C2\SC(=O)N(CC(=O)Nc3ccc(S(N)(=O)=O)cc3)C2=O)cc1OC	inconclusive: 11%
CCC(C)n1c(=N)c(C#N)cc2c(=O)n3ccccc3nc21 (centres undefined)	active: 39%
COCCCNC(=O)c1nn(C)c2c1CN(C(=O)c1csc3c1CCCC3)CC2	inconclusive: 21%
COc1ccc(-c2nnc(NC(=O)c3ccc(S(=O)(=O)N4CCCC(C)C4)cc3)o2)cc1 (centres undefined)	inconclusive: 21%
O=C(CN1C(=O)c2ccccc2C1=O)Nc1ccc(O)c(-c2nc3ccccc3s2)c1	inconclusive: 16%
O=c1[nH]nc(Cc2ccncc2)n1CCc1ccccc1F	inconclusive: 16%
COc1cc(C2C(C#N)=C(N)Oc3nc[nH]c(=O)c32)ccc1OC(C)C (centres undefined)	inactive
Cn1c(C(=O)Nc2ccc3c(c2)OCCO3)cc2c(=O)n3ccccc3nc21	inconclusive: 14%
CC(=O)Oc1ccc2cc(-c3nc(-c4cccs4)cs3)c(=O)oc2c1	inconclusive: 20%
O=c1c2oc3ccccc3c2ncn1Cc1c(F)cccc1Cl	inconclusive: 21%

Compound	inhibition
COC1CC(O[C@H]2CC[C@@]3(C)C(=CCC4C3[C@H](O)[C@@H](O)[C@]3(C)[C@@H]([C@H](C)O)CC[C@]43O)C2)OC(C)C1OC1CC(OC)C(OC2CC(OC)C(OC3OC(C)C(OC4OC(CO)C(O)C(O)C4O)C(OC)C3O)C(C)O2)C(C)O1 (some centres undefined)	inactive
CC(=O)Nc1ccc(N=Cc2ccc(Br)c([N+](=O)[O-])c2)cc1	inconclusive: 13%
CCOc1ccccc1C(=O)Nc1cc(OC)c(NC(=O)c2ccccc2)cc1OC	inconclusive: 21%
COc1ccccc1/C=C/C1=NC(=C\C=C/c2ccccc2)/C(=O)O1	inconclusive: 24%
COc1ccc(CC(=O)NCc2nc3cccnc3n2Cc2ccc(OC)cc2)cc1	inconclusive: 11%
COC(=O)c1ccc(C2C=C(c3ccccc3)Nc3nc4ccccc4n32)cc1 (centres undefined)	inactive
COc1cc(OC)cc(-n2c(=O)c3sccc3n(Cc3cc(=O)n4ccccc4n3)c2=O)c1	inconclusive: 21%
COc1ccc(Cc2nnc(Nc3ccc(F)cc3)[nH]c2=O)cc1	inactive
O=c1ccc(-c2ccc3ccccc3c2)c2n1C[C@H]1C[C@@H]2CN(S(=O)(=O)c2ccccc2)C1	inconclusive: 20%
Cc1ccc(C)c(Cn2nnc(C(=O)NCCc3ccc(Cl)cc3)c2N)c1	inactive
CC(NC(=O)CCN1CCCCCCC1)c1nc(-c2ccccn2)no1 (centres undefined)	inconclusive: 11%
COc1ccc(S(=O)(=O)N2C[C@@H]3C[C@H](C2)c2ccc(NC(=O)c4ccc(C#N)cc4)c(=O)n2C3)cc1	inconclusive: 14%
O=Nc1c(-c2ccccc2)nc2[nH]c3ccccc3n12	inconclusive: 29%
Cn1c(SCc2nc3ccccc3[nH]2)nnc1-c1ccc(NC(=O)c2ccccc2Cl)cc1	inactive
Cn1c(SCC(=O)Nc2ccc3c(c2)OCCO3)nc2c([nH]c3ccccc32)c1=O	inactive
CC1=C(C(=O)Nc2cccnc2)C(c2cccc(F)c2)n2nc(SCc3ccccc3)nc2N1 (centres undefined)	inconclusive: 22%
CCCc1cc2c(=O)c(-c3nc(C)cs3)c(C)oc2cc1OC(C)=O	inconclusive: 11%
Cn1c(=O)c(N2CCOCC2)c2c3c(cccc31)C(=O)c1ccccc1-2	inconclusive: 25%
COc1ccc(NC(=O)c2ccc3c(c2)OCO3)c(OC)c1	inactive
CC(=O)c1cccc(CN2CCCC(O)(CO)CC2)c1 (centres undefined)	inconclusive: 14%
CCN(CC)CCCNC(=O)CSc1c2c(nc3cc(Cl)ccc13)CCCC2	inconclusive: 12%
CCN(CC)C(=O)[C@@H]1C[C@@H](N)CN1C(=O)c1c(C)[nH]c(C(C)=O)c1C	inactive
O=C(C1CCN(c2ccc(-c3ccc(Br)s3)nn2)CC1)N1CCOCC1	inactive

Compound	inhibition
CC1=C[C@@H](CC#N)[C@H](C(C)C)C[C@H]1CC(=O)N(C)CCc1ccccn1	inconclusive: 10%
CN(C)S(=O)(=O)c1ccc2c(c1)C(=O)c1cc(S(=O)(=O)N(C)C)ccc1-2	inconclusive: 10%
Cc1n[nH]c(C)c1CCCNC1CCN(c2ccc3c(c2)OCO3)CC1	inactive
O=C(/C=C/c1ccc(O)c2c1C(C(=O)O)C(c1ccc(O)c(O)c1)O2)OC(Cc1ccc(O)c(O)c1)C(=O)O (centres undefined)	inactive
COc1cc(C(=O)N(c2ccc(C(C)C)cc2)C2C=CS(=O)(=O)C2)cc(OC)c1OC (centres undefined)	inactive
O=C(Cn1c(=O)n(-c2ccc(F)cc2F)c(=O)c2sccc21)NC1CCCC1	inactive
CS(=O)(=O)N1CCCC(C(=O)NC2CCCCCCC2)C1 (centres undefined)	inconclusive: 12%
N#Cc1c2c(c(NCCN3CCCCC3)n3c1nc1ccccc13)CCC2	inconclusive: 14%
Cc1ncnc2c1ncn2-c1ccc(N)nc1	inconclusive: 11%
Cc1c(Cc2ccccc2)c(=O)oc2cc(O)ccc12	inconclusive: 11%
COc1ccc(/C=c2/sc3n(c2=O)CN(c2ccccc2)CN=3)cc1OC	inconclusive: 16%
C=CCn1cc(CNC(CC)c2ccnn2C)c(C)n1 (centres undefined)	inconclusive: 17%
CC(=O)Nc1ccc(S(=O)(=O)Nc2ccc3c(c2)OC2(CCCCC2)O3)cc1	inconclusive: 10%
O=C(Nc1cc2cccc([N+](=O)[O-])c2oc1=O)c1cccc(Cl)c1Cl	inconclusive: 15%
O=C(Nc1ccc(-c2noc(-c3cccs3)n2)cc1)c1ccc(Br)o1	inconclusive: 21%
COc1cc(NC(=O)CSc2nnc(-c3ccco3)c(-c3ccco3)n2)cc(OC)c1	active: 31%
O=C(NCCc1nc2cccnc2n1C1CCCCC1)Nc1ccc2c(c1)OCCO2	inactive
CN1CCC(N2CC[C@@H]3[C@H]2C(=O)NC[C@H](CCC(=O)Nc2ccccc2)N3C)CC1	inconclusive: 13%
Cc1nc(C(C)C)sc1C(=O)N1CCOC(CCN(C)C)C1 (centres undefined)	inactive
CCOC(=O)c1c(NC(=O)c2noc3c2CCCC3)sc2c1CCCC2	inconclusive: 14%
COc1ccc(Oc2ccc(N)cc2)cc1	active: 39%
C=CCSc1nnc2c(n1)OC(c1ccccn1)N(C(C)=O)c1ccccc1-2 (centres undefined)	inactive
CCc1ccccc1OC1CN(C2CCNCC2)C1	inconclusive: 10%

Structures above that have bromine (4):
Compound	inhibition
CCn1cnc2cc(NCc3ccc(Br)cc3)ccc21	inconclusive: 20% and inconclusive: 12%
CC(=O)Nc1ccc(N=Cc2ccc(Br)c([N+](=O)[O-])c2)cc1	inconclusive: 13%
O=C(C1CCN(c2ccc(-c3ccc(Br)s3)nn2)CC1)N1CCOCC1	inactive
O=C(Nc1ccc(-c2noc(-c3cccs3)n2)cc1)c1ccc(Br)o1	inconclusive: 21%

Next entries

Compound	inhibition
O=C1Nc2ccccc2S/C1=C\C(=O)N1CCc2ccccc2C1	inconclusive: 19%
Cc1oc2c(c1C(=O)N1CCN(c3ccc([N+](=O)[O-])cc3)CC1)CCCC2	inconclusive: 28%
Cc1ccc(Cl)cc1N1CCN(CC(=O)Nc2cnccn2)CC1	inconclusive: 27%
Cc1cc(NC(=O)c2cc(-c3ccc(Br)cc3)on2)n(-c2ccccc2)n1	inactive
CC(C)CCNC(=O)N1CCN(Cc2nc3cccnc3n2-c2cccc(F)c2)CC1	inactive
CCc1ccc(CN(C)C(=O)c2nc3nc(C)cc(C)n3n2)nc1	inactive
O=[N+]([O-])c1cc(C(F)(F)F)ccc1NCCc1ccccc1	active: 33%
Cc1ccc(NC2(C#N)C(=O)Nc3ccccc32)cc1 (centres undefined)	inconclusive: 14%
O=c1oc(/C=C/c2ccco2)nc2ccc(Cl)cc12	inconclusive: 16%
OCCCc1ccc(O)cc1	inconclusive: 10%
COc1ccc(C2=NN(c3nc(C)c(C(C)=O)s3)C(c3ccco3)C2)cc1 (centres undefined)	inconclusive: 12%
COc1ccccc1-n1c(O)c(C=Nc2ccc(Br)cc2)c2ccccc2c1=O	inconclusive: 28%
Cc1cc(N2CCN(C)CC2)nc2ccc(NC(=O)CCC(=O)N3CCC(C)CC3)cc12	inactive
CCCCn1c(N)c(C#N)c2nc3ccccc3nc21	inconclusive: 20%
Nc1ccc(C(=O)Nc2ccc(-c3nc4ccc(NC(=O)c5ccc(N)cc5)cc4[nH]3)cc2)cc1	active: 30%
CC(=O)N1CCC(N2C[C@H](O)C[C@H]2c2nc(-c3cccc([N+](=O)[O-])c3)no2)CC1	inconclusive: 14%
Nc1ccc(-c2cc(N)n(-c3ccc(Oc4ccccc4)c(S(=O)(=O)O)c3)n2)cc1	inactive
CCOc1ccc(NCc2nc3ccccc3n2CCOc2ccccc2)cc1	inconclusive: 26%
CCSc1nnc2c(n1)OC(c1ccc(OC)c(O)c1)Nc1ccccc1-2 (centres undefined)	inactive
CC(=O)N(c1ccc(C)cc1)C1CC(=O)N(c2ccc(C)cc2)C1=O (centres undefined)	inconclusive: 15%
